{
  "source": "PubChem BioAssay AID330",
  "about": "(DTP/NCI, 2004)",
  "tested_on": "P388 leukemia ip, CD2F1 mice, survival T/C",
  "experiment": "NCI In Vivo Anticancer Drug Screen. Data for tumor model P388 Leukemia (intraperitoneal) in CD2F1 (CDF1) mice",
  "details": "T/C endpoint: median survival time, higher T/C = longer survival",
  "key": {"[1]": {"details": "dose: 100.0 mg/kg/injection, schedule: Q01DX009 (ip), vehicle: saline with Tween-80"}},
  "note": "The list is a part of this screen's results and no random one: it gathers tests that were run many times, whatever their T/C, doses with no T/C, and many T/C values between a quarter and a half above the control. Further doses and runs are listed elsewhere. T/C: endpoint of the treated group in % of that of the vehicle group. Some entries give survivors of the animals treated and no T/C: the source holds a T/C of zero for them, seemingly a mark for toxic or unscored doses. Some doses without a T/C left all or most animals alive at the check, yet need not have been tolerated: survival well below the control is almost never listed, so the zero probably covers shortened survival too. Counts of survivors are from the toxicity check (mostly the fifth day) where no day follows; animals may have died later. Schedules are NCI's codes, taken here to give the interval after Q, in days (D) or hours (H), and the number of doses after X. For survival time, the PubChem record calls one and a half times the control and up active, and a quarter to a half above the control has no call in these data; cut-offs in other NCI protocols can differ.",
  "data": [
    {"smiles": "N/N=C(/N)[Se]", "values": [
      {"measurement": "survivor count", "setting": "dose: 25.0 mg/kg/injection, schedule: Q01DX009 (ip), vehicle: saline", "value": "3 of 6"},
      {"measurement": "survivor count", "setting": "dose: 50.0 mg/kg/injection, schedule: Q01DX009 (ip), vehicle: saline", "value": "1 of 6"},
      {"measurement": "survivor count", "setting": "dose: 100.0 mg/kg/injection, schedule: Q01DX009 (ip), vehicle: saline", "value": "0 of 6"},
      {"measurement": "survivor count", "setting": "dose: 200.0 mg/kg/injection, schedule: Q01DX009 (ip), vehicle: saline", "value": "0 of 6"}
    ]},
    {"smiles": "C#CCCCCCC#CCCCCCC#CC(=O)O", "values": [
      {"measurement": "survivor count", "setting": "dose: 400.0 mg/kg/injection, schedule: Q01DX001 (ip), vehicle: saline", "value": "1 of 6"}
    ]},
    {"smiles": "Cc1ccccc1-c1nc2c(N)nc(N)nc2nc1N", "values": [
      {"measurement": "T/C", "setting": "[1]", "value": "140 % of control"},
      {"measurement": "T/C", "setting": "dose: 400.0 mg/kg/injection, schedule: Q04DX003 (ip), vehicle: saline with Tween-80", "value": "145 % of control"},
      {"measurement": "T/C", "setting": "dose: 600.0 mg/kg/injection, schedule: Q04DX003 (ip), vehicle: saline with Tween-80", "value": "140 % of control"}
    ]},
    {"smiles": "COC(=O)C1=C(C(=O)OC)P2(C)(C)SC(=S)N2C1(c1ccccc1)c1ccccc1", "values": [
      {"measurement": "survivor count", "setting": "dose: 200.0 mg/kg/injection, schedule: Q01DX005 (ip), vehicle: Klucel (hydroxypropylcellulose) (HPC)", "value": "4 of 6"}
    ]},
    {"smiles": "CCOP1(OCC)(OCC)OC(C(F)(F)F)(C(F)(F)F)C(C(F)(F)F)(C(F)(F)F)O1", "values": [
      {"measurement": "survivor count", "setting": "dose: 25.0 mg/kg/injection, schedule: Q01DX009 (ip), vehicle: saline with Tween-80", "value": "6 of 6"},
      {"measurement": "survivor count", "setting": "dose: 50.0 mg/kg/injection, schedule: Q01DX009 (ip), vehicle: saline with Tween-80", "value": "2 of 6"},
      {"measurement": "survivor count", "setting": "[1]", "value": "0 of 6"},
      {"measurement": "survivor count", "setting": "dose: 200.0 mg/kg/injection, schedule: Q01DX009 (ip), vehicle: saline with Tween-80", "value": "0 of 6"}
    ]},
    {"smiles": "Nc1nnc(N)n1-n1c(N)nnc1N", "values": [
      {"measurement": "survivor count", "setting": "dose: 120.0 mg/kg/injection, schedule: Q01DX005 (ip), vehicle: saline", "value": "2 of 6"},
      {"measurement": "survivor count", "setting": "dose: 240.0 mg/kg/injection, schedule: Q01DX005 (ip), vehicle: saline", "value": "0 of 6"}
    ]},
    {"smiles": "CC[N+](C)(CC)C/C(C)=C(/c1ccccc1S(=O)(=O)N(C)C)C(C)C[N+](C)(CC)CC", "note": "(stereo not drawn)", "values": [
      {"measurement": "survivor count", "setting": "dose: 50.0 mg/kg/injection, schedule: Q04DX003 (ip), vehicle: saline", "value": "3 of 6"},
      {"measurement": "survivor count", "setting": "dose: 100.0 mg/kg/injection, schedule: Q04DX003 (ip), vehicle: saline", "value": "0 of 6"},
      {"measurement": "survivor count", "setting": "dose: 200.0 mg/kg/injection, schedule: Q04DX003 (ip), vehicle: saline", "value": "0 of 6"},
      {"measurement": "survivor count", "setting": "dose: 400.0 mg/kg/injection, schedule: Q04DX003 (ip), vehicle: saline", "value": "0 of 6"}
    ]},
    {"smiles": "OCC1OC(n2ncc3ccccc32)C(O)C1O", "note": "(stereo not drawn)", "values": [
      {"measurement": "T/C", "setting": "dose: 64.0 mg/kg/injection, schedule: Q01DX002 (ip), vehicle: saline with Tween-80", "value": "142 % of control"}
    ]},
    {"smiles": "O=C(Nc1ccc(C2=NCCN2)cc1)c1ccc(C(=O)Nc2ccc(C3=NCCN3)cc2)c(F)c1", "values": [
      {"measurement": "T/C", "setting": "dose: 50.0 mg/kg/injection, schedule: Q04DX003 (ip), vehicle: saline with Tween-80", "value": "136 % of control"}
    ]},
    {"smiles": "Nc1ccc(S(=O)(=O)c2cc(O)c3ccccc3c2O)cc1", "values": [
      {"measurement": "survivor count", "setting": "dose: 100.0 mg/kg/injection, schedule: Q01DX009 (ip), vehicle: Klucel (hydroxypropylcellulose) (HPC)", "value": "0 of 6"},
      {"measurement": "survivor count", "setting": "dose: 200.0 mg/kg/injection, schedule: Q01DX009 (ip), vehicle: Klucel (hydroxypropylcellulose) (HPC)", "value": "0 of 6"}
    ]}
  ]
}
